Laboratory results reported in PMC11055677.

B1: REV1 (HeLa S3 nuclear extract) (protein, UniProt Q9UBZ9 1-1251)
chain: MRRGGWRKRAENDGWETWGGYMAAKVQKLEEQFRSDAAMQKDGTSSTIFSGVAIYVNGYTDPSAEELRKLMMLHGGQYHVYYSRSKTTHIIATNLPNAKIKELKGEKVIRPEWIVESIKAGRLLSYIPYQLYTKQSSVQKGLSFNPVCRPEDPLPGPSNIAKQLNNRVNHIVKKIETENEVKVNGMNSWNEEDENNDFSFVDLEQTSPGRKQNGIPHPRGSTAIFNGHTPSSNGALKTQDCLVPMVNSVASRLSPAFSQEEDKAEKSSTDFRDCTLQQLQQSTRNTDALRNPHRTNSFSLSPLHSNTKINGAHHSTVQGPSSTKSTSSVSTFSKAAPSVPSKPSDCNFISNFYSHSRLHHISMWKCELTEFVNTLQRQSNGIFPGREKLKKMKTGRSALVVTDTGDMSVLNSPRHQSCIMHVDMDCFFVSVGIRNRPDLKGKPVAVTSNRGTGRAPLRPGANPQLEWQYYQNKILKGKAADIPDSSLWENPDSAQANGIDSVLSRAEIASCSYEARQLGIKNGMFFGHAKQLCPNLQAVPYDFHAYKEVAQTLYETLASYTHNIEAVSCDEALVDITEILAETKLTPDEFANAVRMEIKDQTKCAASVGIGSNILLARMATRKAKPDGQYHLKPEEVDDFIRGQLVTNLPGVGHSMESKLASLGIKTCGDLQYMTMAKLQKEFGPKTGQMLYRFCRGLDDRPVRTEKERKSVSAEINYGIRFTQPKEAEAFLLSLSEEIQRRLEATGMKGKRLTLKIMVRKPGAPVETAKFGGHGICDNIARTVTLDQATDNAKIIGKAMLNMFHTMKLNISDMRGVGIHVNQLVPTNLNPSTCPSRPSVQSSHFPSGSYSVRDVFQVQKAKKSTEEEHKEVFRAAVDLEISSASRTCTFLPPFPAHLPTSPDTNKAESSGKWNGLHTPVSVQSRLNLSIEVPSPSQLDQSVLEALPPDLREQVEQVCAVQQAESHGDKKKEPVNGCNTGILPQPVGTVLLQIPEPQESNSDAGINLIALPAFSQVDPEVFAALPAELQRELKAAYDQRQRQGENSTHQQSASASVPKNPLLHLKAAVKEKKRNKKKKTIGSPKRIQSPLNNKLLNSPAKTLPGACGSPQKLIDGFLKHEGPPAEKPLEELSASTSGVPGLSSLQSDPAGCVRPPAPNLAGAVEFNDVKTLLREWITTISDPMEEDILQVVKYCTDLIEEKDLEKLDLVIKYMKRLMQQSVESVWNMAFDFILDNVQVVLQQTYGSTLKVT
B2: RFC1 (HeLa S3 nuclear extract) (protein, UniProt P35251 1-1148)
chain: MDIRKFFGVIPSGKKLVSETVKKNEKTKSDEETLKAKKGIKEIKVNSSRKEDDFKQKQPSKKKRIIYDSDSESEETLQVKNAKKPPEKLPVSSKPGKISRQDPVTYISETDEEDDFMCKKAASKSKENGRSTNSHLGTSNMKKNEENTKTKNKPLSPIKLTPTSVLDYFGTGSVQRSNKKMVASKRKELSQNTDESGLNDEAIAKQLQLDEDAELERQLHEDEEFARTLAMLDEEPKTKKARKDTEAGETFSSVQANLSKAEKHKYPHKVKTAQVSDERKSYSPRKQSKYESSKESQQHSKSSADKIGEVSSPKASSKLAIMKRKEESSYKEIEPVASKRKENAIKLKGETKTPKKTKSSPAKKESVSPEDSEKKRTNYQAYRSYLNREGPKALGSKEIPKGAENCLEGLIFVITGVLESIERDEAKSLIERYGGKVTGNVSKKTNYLVMGRDSGQSKSDKAAALGTKIIDEDGLLNLIRTMPGKKSKYEIAVETEMKKESKLERTPQKNVQGKRKISPSKKESESKKSRPTSKRDSLAKTIKKETDVFWKSLDFKEQVAEETSGDSKARNLADDSSENKVENLLWVDKYKPTSLKTIIGQQGDQSCANKLLRWLRNWQKSSSEDKKHAAKFGKFSGKDDGSSFKAALLSGPPGVGKTTTASLVCQELGYSYVELNASDTRSKSSLKAIVAESLNNTSIKGFYSNGAASSVSTKHALIMDEVDGMAGNEDRGGIQELIGLIKHTKIPIICMCNDRNHPKIRSLVHYCFDLRFQRPRVEQIKGAMMSIAFKEGLKIPPPAMNEIILGANQDIRQVLHNLSMWCARSKALTYDQAKADSHRAKKDIKMGPFDVARKVFAAGEETAHMSLVDKSDLFFHDYSIAPLFVQENYIHVKPVAAGGDMKKHLMLLSRAADSICDGDLVDSQIRSKQNWSLLPAQAIYASVLPGELMRGYMTQFPTFPSWLGKHSSTGKHDRIVQDLALHMSLRTYSSKRTVNMDYLSLLRDALVQPLTSQGVDGVQDVVALMDTYYLMKEDFENIMEISSWGGKPSPFSKLDPKVKAAFTRAYNKEAHLTPYSLQAIKASRHSTSPSLDSEYNEELNEDDSQSDEKDQDAIETDAMIKKKTKSSKPSKPEKDKEPRKGKGKSSKK
B3: CINP (HeLa S3 nuclear extract) (protein, UniProt Q9BW66 1-212)
chain: MEAKTLGTVTPRKPVLSVSARKIKDNAADWHNLILKWETLNDAGFTTANNIANLKISLLNKDKIELDSSSPASKENEEKVCLEYNEELEKLCEELQATLDGLTKIQVKMEKLSSTTKGICELENYHYGEESKRPPLFHTWPTTHFYEVSHKLLEMYRKELLLKRTVAKELAHTGDPDLTLSYLSMWLHQPYVESDSRLHLESMLLETGHRAL
B4: C1orf109 (HeLa S3 nuclear extract) (protein, UniProt Q9NX04 1-203)
chain: MTQDRPLLAVQEALKKCFPVVEEQQGLWQSALRDCQPLLSSLSNLAEQLQAAQNLRFEDVPALRAFPDLKERLRRKQLVAGDIVLDKLGERLAILLKVRDMVSSHVERVFQIYEQHADTVGIDAVLQPSAVSPSVADMLEWLQDIERHYRKSYLKRKYLLSSIQWGDLANIQALPKAWDRISKDEHQDLVQDILLNVSFFLEE
B5: POLD3 (HeLa S3 nuclear extract) (protein, UniProt Q15054 1-466)
chain: MADQLYLENIDEFVTDQNKIVTYKWLSYTLGVHVNQAKQMLYDYVERKRKENSGAQLHVTYLVSGSLIQNGHSCHKVAVVREDKLEAVKSKLAVTASIHVYSIQKAMLKDSGPLFNTDYDILKSNLQNCSKFSAIQCAAAVPRAPAESSSSSKKFEQSHLHMSSETQANNELTTNGHGPPASKQVSQQPKGIMGMFASKAAAKTQETNKETKTEAKEVTNASAAGNKAPGKGNMMSNFFGKAAMNKFKVNLDSEQAVKEEKIVEQPTVSVTEPKLATPAGLKKSSKKAEPVKVLQKEKKRGKRVALSDDETKETENMRKKRRRIKLPESDSSEDEVFPDSPGAYEAESPSPPPPPSPPLEPVPKTEPEPPSVKSSSGENKRKRKRVLKSKTYLDGEGCIVTEKVYESESCTDSEEELNMKTSSVHRPPAMTVKKEPREERKGPKKGTAALGKANRQVSITGFFQRK

target: T1, FLAG-HA-POLD3, stably expressed in HeLa S3 (human) (UniProt Q15054); experiment: affinity purification with mass spectrometry; FLAG-HA tandem purification from high-salt (400 mM KCl) nuclear extracts of HeLa S3 stably expressing the FH-tagged bait, dialysed to KETNG150; eluate analysed by mass spectrometry; empty vector as control
T1 sequence: B5 chain

binding, binds:
B1

target: T2, FLAG-HA-SPATA5, stably expressed in HeLa S3 (human) (UniProt Q8NB90); experiment: as above
T2 sequence: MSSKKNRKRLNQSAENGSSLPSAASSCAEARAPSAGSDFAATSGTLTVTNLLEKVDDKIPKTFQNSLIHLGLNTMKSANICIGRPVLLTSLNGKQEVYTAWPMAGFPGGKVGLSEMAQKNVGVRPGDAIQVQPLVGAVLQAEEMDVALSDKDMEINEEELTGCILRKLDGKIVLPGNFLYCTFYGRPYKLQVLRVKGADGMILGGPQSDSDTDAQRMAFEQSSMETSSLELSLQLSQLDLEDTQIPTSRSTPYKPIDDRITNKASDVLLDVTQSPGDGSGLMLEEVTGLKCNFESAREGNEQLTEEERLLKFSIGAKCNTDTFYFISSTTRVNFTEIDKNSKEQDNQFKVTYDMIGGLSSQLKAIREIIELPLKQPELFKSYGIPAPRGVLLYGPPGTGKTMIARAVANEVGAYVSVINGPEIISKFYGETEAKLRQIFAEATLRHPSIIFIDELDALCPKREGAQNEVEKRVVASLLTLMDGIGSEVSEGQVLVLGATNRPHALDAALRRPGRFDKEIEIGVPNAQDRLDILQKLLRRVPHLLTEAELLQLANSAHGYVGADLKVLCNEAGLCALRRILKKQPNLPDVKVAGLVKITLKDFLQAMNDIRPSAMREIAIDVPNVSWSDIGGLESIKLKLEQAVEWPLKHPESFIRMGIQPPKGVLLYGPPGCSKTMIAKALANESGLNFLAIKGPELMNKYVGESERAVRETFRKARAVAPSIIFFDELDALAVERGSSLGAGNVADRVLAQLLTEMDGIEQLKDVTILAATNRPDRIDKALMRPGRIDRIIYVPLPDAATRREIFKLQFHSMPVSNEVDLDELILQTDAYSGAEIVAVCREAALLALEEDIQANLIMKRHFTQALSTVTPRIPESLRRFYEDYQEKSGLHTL

binding, binds:
B2
B3
B4
B5

target: T3, FLAG-HA-SPATA5L1, stably expressed in HeLa S3 (human) (UniProt Q9BVQ7); experiment: as above
T3 sequence: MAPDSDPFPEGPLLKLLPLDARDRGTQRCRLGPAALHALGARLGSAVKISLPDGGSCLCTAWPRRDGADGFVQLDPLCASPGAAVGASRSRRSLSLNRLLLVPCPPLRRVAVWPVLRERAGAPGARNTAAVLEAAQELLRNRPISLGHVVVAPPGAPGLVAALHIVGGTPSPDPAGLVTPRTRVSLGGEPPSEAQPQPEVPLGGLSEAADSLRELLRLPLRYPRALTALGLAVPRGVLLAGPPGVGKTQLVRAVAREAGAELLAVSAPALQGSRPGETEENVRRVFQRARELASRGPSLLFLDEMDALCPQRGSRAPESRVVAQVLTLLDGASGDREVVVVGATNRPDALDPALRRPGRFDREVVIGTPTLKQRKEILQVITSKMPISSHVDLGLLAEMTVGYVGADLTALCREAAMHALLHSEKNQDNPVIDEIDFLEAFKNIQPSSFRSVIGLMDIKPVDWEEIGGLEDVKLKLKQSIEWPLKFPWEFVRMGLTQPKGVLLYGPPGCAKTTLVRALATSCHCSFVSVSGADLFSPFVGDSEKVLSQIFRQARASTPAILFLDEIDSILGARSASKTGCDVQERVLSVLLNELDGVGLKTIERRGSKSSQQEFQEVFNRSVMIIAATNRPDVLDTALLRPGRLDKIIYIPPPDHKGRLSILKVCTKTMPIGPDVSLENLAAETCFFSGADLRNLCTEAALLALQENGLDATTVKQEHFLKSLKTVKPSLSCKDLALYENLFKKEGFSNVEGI

binding, binds:
B2
B3
B4
B5

These are yes or no findings as the source states them, for the method shown. Binding seen in cells or lysates may run through a third protein. These calls come from enrichment with a bait or labelling near it, and not all partners need be listed. Where a sequence is shown, tags or fusion partners need not be part of it.
